For part of these data: Shown are results outside the selection of hits, which stands elsewhere. Results filed as inconclusive are left out. The entries are a selection whose mix differs from that of the whole data set. Some structures have more than one record in an assay (separate samples or runs), and their calls can disagree. Calls of active or inactive are those of the source. Rule for the calls, unless noted: active = hit-call score of the fitted dose curve at least 0.9, where 1 is the maximum; inconclusive = response in the unintended direction; inactive = score below 0.9.

By UniProt entry, the sequences of proteins in these tests, tags left out. Where a name states a change or a piece, a line headed by the entry shows the natural chain unless it says otherwise.
UniProt Q03181: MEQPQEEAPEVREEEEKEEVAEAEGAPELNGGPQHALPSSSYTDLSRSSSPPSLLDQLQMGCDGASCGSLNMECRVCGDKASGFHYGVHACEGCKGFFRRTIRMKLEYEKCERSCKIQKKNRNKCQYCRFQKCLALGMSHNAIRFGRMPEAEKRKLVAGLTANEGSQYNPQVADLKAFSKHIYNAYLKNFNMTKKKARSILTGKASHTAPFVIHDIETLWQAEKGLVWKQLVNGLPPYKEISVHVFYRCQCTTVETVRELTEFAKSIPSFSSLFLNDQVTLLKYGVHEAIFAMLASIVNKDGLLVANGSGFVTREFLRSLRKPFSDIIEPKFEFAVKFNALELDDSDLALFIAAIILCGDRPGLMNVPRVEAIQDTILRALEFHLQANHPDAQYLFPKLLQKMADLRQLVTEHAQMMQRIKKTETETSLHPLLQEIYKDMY
UniProt P13631, whole entry, looked up: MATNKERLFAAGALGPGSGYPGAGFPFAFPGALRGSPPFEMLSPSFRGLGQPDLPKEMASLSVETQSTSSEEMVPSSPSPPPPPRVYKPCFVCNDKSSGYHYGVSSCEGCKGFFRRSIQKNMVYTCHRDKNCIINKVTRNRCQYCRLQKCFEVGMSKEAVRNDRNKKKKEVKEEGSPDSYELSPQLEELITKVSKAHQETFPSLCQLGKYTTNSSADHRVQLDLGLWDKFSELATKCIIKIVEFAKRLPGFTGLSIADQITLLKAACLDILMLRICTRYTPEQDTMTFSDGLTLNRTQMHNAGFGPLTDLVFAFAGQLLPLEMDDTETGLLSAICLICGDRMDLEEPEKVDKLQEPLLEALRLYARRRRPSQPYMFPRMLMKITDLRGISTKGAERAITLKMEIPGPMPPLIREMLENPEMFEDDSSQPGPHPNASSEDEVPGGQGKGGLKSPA
UniProt P11473: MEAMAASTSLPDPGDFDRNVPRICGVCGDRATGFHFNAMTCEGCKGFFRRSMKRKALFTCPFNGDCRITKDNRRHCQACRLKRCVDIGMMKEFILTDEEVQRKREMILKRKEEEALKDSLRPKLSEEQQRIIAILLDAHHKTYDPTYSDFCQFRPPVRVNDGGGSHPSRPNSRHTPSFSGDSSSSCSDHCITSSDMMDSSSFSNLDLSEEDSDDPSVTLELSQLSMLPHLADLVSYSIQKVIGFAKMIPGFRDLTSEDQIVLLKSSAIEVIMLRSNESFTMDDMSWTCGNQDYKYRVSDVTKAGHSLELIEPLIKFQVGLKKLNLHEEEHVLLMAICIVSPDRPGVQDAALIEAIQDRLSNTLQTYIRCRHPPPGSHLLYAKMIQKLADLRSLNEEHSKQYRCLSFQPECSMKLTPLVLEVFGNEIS
UniProt P16581: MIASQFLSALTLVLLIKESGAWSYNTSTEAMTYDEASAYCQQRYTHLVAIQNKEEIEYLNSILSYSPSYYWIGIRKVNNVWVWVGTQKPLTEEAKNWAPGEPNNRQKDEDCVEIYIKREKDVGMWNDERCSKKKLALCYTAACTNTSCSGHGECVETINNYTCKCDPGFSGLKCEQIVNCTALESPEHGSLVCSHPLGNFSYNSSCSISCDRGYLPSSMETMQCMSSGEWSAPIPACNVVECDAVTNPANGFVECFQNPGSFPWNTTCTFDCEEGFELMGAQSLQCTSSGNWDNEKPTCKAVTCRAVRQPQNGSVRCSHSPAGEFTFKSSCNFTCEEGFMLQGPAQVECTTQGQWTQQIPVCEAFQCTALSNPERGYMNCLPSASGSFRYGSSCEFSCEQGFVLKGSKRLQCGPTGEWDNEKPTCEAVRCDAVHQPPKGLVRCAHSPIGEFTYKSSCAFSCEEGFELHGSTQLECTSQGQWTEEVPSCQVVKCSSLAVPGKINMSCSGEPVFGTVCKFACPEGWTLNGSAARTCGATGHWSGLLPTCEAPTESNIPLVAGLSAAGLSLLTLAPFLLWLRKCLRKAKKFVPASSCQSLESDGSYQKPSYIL
UniProt P10276, whole entry, looked up: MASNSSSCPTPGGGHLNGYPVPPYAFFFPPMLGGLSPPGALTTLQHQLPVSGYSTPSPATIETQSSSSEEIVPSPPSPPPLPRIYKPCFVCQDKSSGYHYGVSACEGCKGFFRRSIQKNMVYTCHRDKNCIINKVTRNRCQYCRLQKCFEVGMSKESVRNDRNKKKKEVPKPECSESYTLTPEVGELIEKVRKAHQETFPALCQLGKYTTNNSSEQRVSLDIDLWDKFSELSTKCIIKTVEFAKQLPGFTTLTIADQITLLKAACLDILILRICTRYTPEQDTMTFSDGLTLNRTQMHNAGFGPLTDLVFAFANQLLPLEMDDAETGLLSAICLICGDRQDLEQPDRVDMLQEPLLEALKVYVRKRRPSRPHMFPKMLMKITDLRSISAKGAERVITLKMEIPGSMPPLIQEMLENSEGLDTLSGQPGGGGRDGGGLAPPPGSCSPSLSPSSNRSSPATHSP
UniProt Q07869: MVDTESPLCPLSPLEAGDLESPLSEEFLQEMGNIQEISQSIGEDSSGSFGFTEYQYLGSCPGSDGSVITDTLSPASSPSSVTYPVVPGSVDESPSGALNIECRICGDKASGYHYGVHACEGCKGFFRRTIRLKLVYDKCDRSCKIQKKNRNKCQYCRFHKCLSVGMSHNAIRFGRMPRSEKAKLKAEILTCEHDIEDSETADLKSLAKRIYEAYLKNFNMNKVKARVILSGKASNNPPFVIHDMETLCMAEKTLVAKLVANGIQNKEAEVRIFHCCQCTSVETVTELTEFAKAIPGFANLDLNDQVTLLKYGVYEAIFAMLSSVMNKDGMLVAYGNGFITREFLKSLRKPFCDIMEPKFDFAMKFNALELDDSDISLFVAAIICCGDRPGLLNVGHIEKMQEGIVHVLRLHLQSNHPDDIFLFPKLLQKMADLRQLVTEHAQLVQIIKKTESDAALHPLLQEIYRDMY

Assay [1] concerns the target human Peroxisome Proliferator-activated Receptor delta (PPARd), PPARD (gene 5467) (UniProt Q03181). The assay can be described thus: ATG_PPARd_TRANS: Attagene TRANS-FACTORIAL HepG2 Assay for human Peroxisome Proliferator-activated Receptor delta (PPARd) (AID 2283002). In outline: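 Measured quantity: GAL4-UAS reporter transcript induction in HepG2 after 24 h chemical dosing, with NR-Gal4 chimeras supplied by transient transfection. Detection by RT-PCR and capillary electrophoresis; upward fit against DMSO.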

Assay [2] concerns the target human Retinoic Acid Receptor gamma (RARg), RARG (gene 5916) (UniProt P13631). The assay can be described thus: ATG_RARg_TRANS: Attagene TRANS-FACTORIAL HepG2 Assay for human Retinoic Acid Receptor gamma (RARg) (AID 2283009). The method, boiled down:
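Transactivation of exogenous RARg-Gal4 fusion measured as reporter transcript induction after 24 h in transfected HepG2 cells. RNA reverse-transcribed, amplified, fluorescently labeled and resolved by capillary electrophoresis; increase relative to DMSO.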

In assay [3] the target is human Vitamin D Receptor (VDR), VDR (gene 7421) (UniProt P11473). The assay can be described thus: ATG_VDR_TRANS: Attagene TRANS-FACTORIAL HepG2 Assay for human Vitamin D Receptor (VDR) (AID 2283022). In outline: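 RT-PCR/capillary electrophoresis read-out of reporter mRNA induction in transiently transfected HepG2; 24 h dosing; chimeric NR-Gal4 (TRANS format); gain-of-signal fit against DMSO baseline.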

Read-out in assay [4]: E-selectin (Homo sapiens) (UniProt P16581)
Briefly: BSK_LPS_Eselectin: BioMAP Diversity Plus: LPS Assay for Eselectin Biomarker Activity (AID 2283077; active = hit-call score of the fitted dose curve at least 0.9, where 1 is the maximum; inactive = score below 0.9). The following applies: actives raise or lower the signal; primary human HUVEC with PBMC. The method, boiled down:
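ELISA readout of E-selectin, 24 h post-dose, HUVEC + PBMC co-culture (LPS system). Gain or loss of signal vs DMSO baseline, bidirectional fit.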

Assay [5] concerns the target Retinoic acid receptor alpha (Homo sapiens) (UniProt P10276). The assay can be described thus: ATG_RARa_TRANS: Attagene TRANS-FACTORIAL HepG2 Assay for human Retinoic Acid Receptor alpha (RARa) (AID 2283005).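 Note: potency for increased reporter signal meaning RARa activation over DMSO.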 The method, boiled down:
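HepG2 cells transiently transfected with multiple reporter units expressing chimeric RARα-GAL4 fusion, with GAL4-UAS-driven reporters. After 24 h compound exposure, reporter mRNA induction quantified by RT-PCR and capillary electrophoresis with fluorescent labeling; gain-of-signal fitted relative to DMSO control.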

The nature of assay [6]: ACEA_AR_agonist_AUC_viability: ACEA Biosciences xCELLigence Real-Time Cell Analysis on Androgen Receptor Agonism for Viability (AID 2283775).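 For AC50: viability read 80 hours after compound addition.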 In outline: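 22Rv1 cells; impedance growth kinetics; 8-pt 1:4 dilutions from 100 uM top final, ≤0.5% DMSO; n = 2; 80 h read; AUC viability, loss-of-signal vs DMSO.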
Assay [7] is described as follows: BSK_3C_Proliferation: Cell Proliferation Assessment in the BioMAP Diversity Plus: 3C Assay (AID 2283006; active = hit-call score of the fitted dose curve at least 0.9, where 1 is the maximum; inactive = score below 0.9). The following applies: primary human endothelial cells (HUVEC). The method, boiled down:
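Proliferation as total protein: sulforhodamine B (0.1%) stain of TCA-fixed subconfluent human umbilical vein endothelial cells, absorbance 560 nm, 48 h after dosing. Activity fitted in both directions against DMSO baseline.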

Assay [8] is described as follows: BSK_LPS_SRB: Viability Assessment in the BioMAP Diversity Plus: LPS Assay (AID 2283079; active = hit-call score of the fitted dose curve at least 0.9, where 1 is the maximum; inactive = score below 0.9;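 note: total protein by sulforhodamine B absorbance as a cytotoxicity measure; measured one day after compound addition; fitted in both directions against DMSO so loss or gain of signal counts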). The following applies: primary human HUVEC with PBMC. The method, boiled down:
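HUVEC + PBMC co-culture, LPS-stimulated; compound 24 h. 10% TCA fix, 0.1% SRB stain, A560. Bidirectional fit vs DMSO.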

The nature of assay [9]: BSK_SAg_Proliferation: Cell Proliferation Assessment in the BioMAP Diversity Plus: SAg Assay (AID 2283095; active = hit-call score of the fitted dose curve at least 0.9, where 1 is the maximum; inactive = score below 0.9;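 note: relative cell number as total protein by SRB absorbance in sub-confluent culture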). The following applies: primary human HUVEC with PBMC. In outline:
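Relative cell number in the endothelial cell/PBMC co-culture was quantified at 96 h by SRB staining (0.1% SRB, 10% TCA fixation, read at 560 nm). Curves were fitted in both directions relative to DMSO baseline.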

Read-out in assay [10]: Interferon-inducible T-cell alpha chemoattractant (ITAC), CXCL11 (gene 6373)
The assay can be described thus: BSK_BE3C_ITAC: BioMAP Diversity Plus: BE3C Assay for Interferon-inducible T-cell alpha chemoattractant (ITAC) Biomarker Activity (AID 2284279; active = hit-call score of the fitted dose curve at least 0.9, where 1 is the maximum; inactive = score below 0.9). The following applies: primary human bronchial epithelial cells. The method, boiled down:
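ELISA read-out of I-TAC after 24 h chemical dosing of human lung primary bronchial epithelial cells; gain-of-signal fit vs DMSO baseline. Parallel SRB total-protein staining (0.1% SRB, 10% TCA fixation, 560 nm) assessed cytotoxicity.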

Read-out in assay [11]: Monocyte Chemoattractant Protein-1 (MCP1), CCL2 (gene 6347)
Briefly: BSK_hDFCGF_MCP1: BioMAP Diversity Plus: hDFCGF Assay for Monocyte Chemoattractant Protein-1 (MCP1) Biomarker Activity (AID 2284285; active = hit-call score of the fitted dose curve at least 0.9, where 1 is the maximum; inactive = score below 0.9). The following applies: primary human foreskin fibroblasts. In outline: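 MCP-1 ELISA readout was taken 24 hours after dosing primary human dermal fibroblasts in the hDFCGF system, with DMSO as baseline. Parallel sulforhodamine B staining of total protein tracked overt cytotoxicity.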

For assay [12], the target named is human Peroxisome Proliferator-activated Receptor alpha (PPARa), PPARA (gene 5465) (UniProt Q07869). Briefly: ATG_PPARa_TRANS: Attagene TRANS-FACTORIAL HepG2 Assay for human Peroxisome Proliferator-activated Receptor alpha (PPARa) (AID 2283001). In outline: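 Cells (HepG2) are transfected with multiple reporter transcription units, exposed to chemical for 24 h, then total RNA is reverse-transcribed and amplified. Labelled products are quantified by capillary electrophoresis; induction is referenced to DMSO.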

The nature of assay [13]: CEETOX_H295R_MTT_cell_viability: Viability Assessment in the CeeTox HT-H295R MTT Assay (AID 2283718; active = hit-call score of the fitted dose curve at least 0.9, where 1 is the maximum; inactive = score below 0.9).
Assay [14] can be described thus: ATG_M_06_XSP2: Attagene TRANS-FACTORIAL Multi-Species (XSP2) HepG2 Assay for M06 Transcription Factor (Internal Marker) (AID 2283811).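 Note: hits are increases in signal above the DMSO baseline.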 The method, boiled down:
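Cells of the human liver line HepG2 carried transfected reporter transcription units and were treated for 24 h. Induced reporter transcripts were detected by fluorescence after RT-PCR and capillary electrophoresis, with activity fitted in the gain direction against DMSO.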

Assay [15] is described as follows: ATG_M_61_XSP2: Attagene TRANS-FACTORIAL Multi-Species (XSP2) HepG2 Assay for M61 Transcription Factor (Internal Marker) (AID 2283835; active = hit-call score of the fitted dose curve at least 0.9, where 1 is the maximum; inactive = score below 0.9;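 note: active means a rise in signal above the DMSO baseline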). The method, boiled down: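 Signal was mRNA induction detected as fluorescence after RT-PCR and capillary electrophoresis, analysed in the gain direction with DMSO as baseline. HepG2 cells transiently carrying reporter constructs received chemicals for 24 h.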

Take `c1ccc(Nc2cccc3ccccc23)cc1`: the molecule was called inactive in assay [1], in [2], in assay [3] and in [4].

Usually AC50 stands for the concentration giving half of the maximal activity seen. For the molecule `CCCCCCCCCCCCCCCCCC[N+](C)(C)C`, the AC50 in assay [5] was active: 44.4 µM.

Regarding `CCCCCCCCCCCCN1CCOCC1`, the molecule was called inactive in assay [1], in assay [3] and in [6].

Take `CCCCC(CC)COP(=O)(O)OCC(CC)CCCC` (stereo not drawn): the outcome in assay [7] and in assay [8] was inactive. The AC50 in [9] is active: 24 µM; in assay [6] it was active: 16.6 µM; in [10], active: 29.8 µM; in [11], active: 36.8 µM.

On to `O=c1cc(-c2ccc(O)cc2)oc2cc(O)cc(O)c12`, for which the molecule was classed as inactive in [12], in assay [13], in assay [14] and in assay [15].

For the origin of these results see PubChem BioAssay (EPA / NIEHS).
